Data taken from patent EP4714971A1.
Residue numbers refer to the chain shown, from its start. These are yes or no findings as the source states them, for the method shown. Some binding calls cover weakened binding; strength is not graded here.

Sequences of proteins named here, by UniProt entry; tags and fusion partners are left off. A change or cut given only in a name is not applied to a line headed by its entry.
UniProt Q53EL9: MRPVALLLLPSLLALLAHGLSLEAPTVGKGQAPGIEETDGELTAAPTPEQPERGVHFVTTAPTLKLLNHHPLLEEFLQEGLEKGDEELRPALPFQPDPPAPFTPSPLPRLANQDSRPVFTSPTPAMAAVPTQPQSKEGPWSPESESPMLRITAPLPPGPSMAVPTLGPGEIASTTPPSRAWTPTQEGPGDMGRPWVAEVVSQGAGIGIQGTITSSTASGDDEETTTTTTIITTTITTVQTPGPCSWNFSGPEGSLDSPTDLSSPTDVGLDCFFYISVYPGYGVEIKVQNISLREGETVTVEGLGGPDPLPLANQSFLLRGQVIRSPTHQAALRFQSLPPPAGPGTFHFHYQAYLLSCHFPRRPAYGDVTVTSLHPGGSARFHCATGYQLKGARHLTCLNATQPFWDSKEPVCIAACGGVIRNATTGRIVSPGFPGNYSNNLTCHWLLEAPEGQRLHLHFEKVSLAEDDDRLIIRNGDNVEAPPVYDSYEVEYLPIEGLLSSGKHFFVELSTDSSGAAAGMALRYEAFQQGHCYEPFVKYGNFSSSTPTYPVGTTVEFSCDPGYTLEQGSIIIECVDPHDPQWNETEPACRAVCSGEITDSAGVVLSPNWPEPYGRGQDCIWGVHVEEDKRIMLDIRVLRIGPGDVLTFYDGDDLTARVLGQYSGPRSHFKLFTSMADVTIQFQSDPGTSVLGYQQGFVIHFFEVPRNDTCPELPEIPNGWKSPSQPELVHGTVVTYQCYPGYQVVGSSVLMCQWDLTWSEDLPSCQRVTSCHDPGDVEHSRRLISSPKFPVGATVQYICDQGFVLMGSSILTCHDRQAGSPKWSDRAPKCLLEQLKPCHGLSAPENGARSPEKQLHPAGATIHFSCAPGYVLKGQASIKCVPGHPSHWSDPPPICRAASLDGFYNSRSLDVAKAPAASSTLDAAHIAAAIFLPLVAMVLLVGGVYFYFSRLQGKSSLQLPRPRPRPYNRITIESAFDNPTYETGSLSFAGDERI

B1: PR3121 (antibody, human IgG1, kappa, V domains shown)
VH: EVQLVQSGAEVKKPGSSVKVSCKASGYTFSIYWMHWVRQAPGQGLEWIGMIHPNSGSTNYNEKFKSRATLTVDKSTSTAYMELSSLRSEDTAVYYCARGGNYVAMDYWGQGTLVTVSS
VL: DIQMTQSPSSLSASVGDRVTITCTASSSVSSSYLHWYQQKPGKAPKLLIYSTSNLASGVPSRFSGSGSGTDFTLTISSLQPEDFATYYCHQYHRSLTFGGGTKVEIKR
B2: PR3123 (antibody, human IgG1, kappa, V domains shown)
VH: B1 VH
VL: B1 VL with M4L, I21M, A44S, L48W, F72Y
B3: cAb025 (Fc fusion, not shown: a dimerising Fc or GST)
VHH: EVQLVESGGGSVQPGGSLRLSCEASGLTYNKDCMAWFRQAPGKEREGVAIINGVGRTRYADSVKGRFTISKDNAKNTLYLQMNNLKPEDTAMYYCAAQRASSSCGSLSRAWYDYWGRGTQVTVSS
B4: cAb314 (Fc fusion, not shown: a dimerising Fc or GST)
VHH: HVQLVESGGGSVQAGGSLRLSCAVSGFTSSRGWMAWFRQAPGKEREGVAVIGRRSGDIYYADSLKGRFTISHDSTENTLYLQMNNLKPEDTATYYCAVGDQAGHVLTSSPYRYWGQGTQVTVSS

The binders below were run against human SEZ6 expressed on stably transfected CHO-K1 cells (human) (UniProt Q53EL9) (assay: flow cytometry on SEZ6-expressing CHO-K1 cells).

binding, binds:
B1, B2, B3, B4
